Results are given in words; binding and its absence hold for the method and conditions named. In cells and extracts the contact can be indirect. Some binding calls cover weakened binding; strength is not graded here.
Molecular target: T1, Sirtuin1 (SIRT1) (mouse (endogenous in primary peritoneal macrophages)) (UniProt Q923E4)
T1 sequence: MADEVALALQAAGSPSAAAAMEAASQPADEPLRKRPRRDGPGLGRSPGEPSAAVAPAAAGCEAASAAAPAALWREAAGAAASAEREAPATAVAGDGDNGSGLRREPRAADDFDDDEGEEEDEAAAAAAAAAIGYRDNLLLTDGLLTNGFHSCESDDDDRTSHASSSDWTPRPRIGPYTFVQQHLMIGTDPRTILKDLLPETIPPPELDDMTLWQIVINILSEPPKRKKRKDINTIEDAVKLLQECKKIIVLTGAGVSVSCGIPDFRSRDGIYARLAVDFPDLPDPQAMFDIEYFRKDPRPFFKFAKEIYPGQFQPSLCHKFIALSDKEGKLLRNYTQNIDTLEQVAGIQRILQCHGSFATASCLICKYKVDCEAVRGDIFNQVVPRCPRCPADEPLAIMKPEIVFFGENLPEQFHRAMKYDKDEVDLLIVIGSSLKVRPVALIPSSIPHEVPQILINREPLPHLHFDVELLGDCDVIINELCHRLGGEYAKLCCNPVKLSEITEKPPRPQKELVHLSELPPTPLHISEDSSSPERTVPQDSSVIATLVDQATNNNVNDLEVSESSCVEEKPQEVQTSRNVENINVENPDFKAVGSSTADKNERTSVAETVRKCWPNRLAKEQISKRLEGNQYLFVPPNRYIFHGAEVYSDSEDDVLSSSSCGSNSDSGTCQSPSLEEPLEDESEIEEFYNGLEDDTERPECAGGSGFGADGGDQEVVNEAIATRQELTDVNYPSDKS
Test: co-IP; cell lysate (lysis buffer with PMSF) pre-cleared with Dynabeads Protein G, SIRT1 polyclonal antibody added overnight at 4 °C, beads washed 3 times with lysis buffer, SIRT1-binding proteins analysed by western blotting

Amino acid sequences for entries named in this document (tags omitted).
UniProt Q04207: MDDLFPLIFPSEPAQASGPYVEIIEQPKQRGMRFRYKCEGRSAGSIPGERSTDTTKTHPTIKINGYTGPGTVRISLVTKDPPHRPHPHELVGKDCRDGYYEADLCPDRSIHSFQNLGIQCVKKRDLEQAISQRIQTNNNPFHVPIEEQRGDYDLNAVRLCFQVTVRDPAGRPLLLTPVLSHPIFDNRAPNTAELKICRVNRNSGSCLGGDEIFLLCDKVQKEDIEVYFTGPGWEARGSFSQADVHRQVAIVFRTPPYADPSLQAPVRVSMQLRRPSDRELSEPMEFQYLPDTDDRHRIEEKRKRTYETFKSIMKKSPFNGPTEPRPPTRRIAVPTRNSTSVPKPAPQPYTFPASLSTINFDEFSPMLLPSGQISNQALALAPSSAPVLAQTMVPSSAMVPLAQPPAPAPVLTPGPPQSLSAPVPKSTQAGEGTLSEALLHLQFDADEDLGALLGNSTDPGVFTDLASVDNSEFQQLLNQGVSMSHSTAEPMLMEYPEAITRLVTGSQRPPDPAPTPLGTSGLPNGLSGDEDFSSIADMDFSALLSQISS

How did the binding turn out when NF-κB P65 (from UniProt Q04207 1-549) was run?
The binding was “binds”.

Reference: PMC11566926
